Where a chain is given by its changes, count along the chain named. In names and notes the source's numbering stands. No constants are given. Whether binding was seen depends on the method and setting. Some binding calls cover weakened binding; strength is not graded here.
Biological target: T1, TNKS1 SAM(E1050K)-CFP (human, UniProt O95271 1030-1089, E1050K)
T1 construct: human tankyrase 1 (TNKS1), sterile alpha-motif (SAM) domain; also called ML surface mutant of the TNKS1 SAM domain; source: E. coli BL21(DE3), purified (IMAC); not shown: mCerulean (CFP), C-terminal, kept
T1 sequence (looked up): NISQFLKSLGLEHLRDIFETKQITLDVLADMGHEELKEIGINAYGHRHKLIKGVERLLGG
Assay: FRET or BRET; ratiometric FRET (527 nm/477 nm on excitation at 410 nm): 250 nM CFP-fusion mixed with 500 nM YFP-fusion or YFP; assay buffer pH 7.0; 384-well plates, 4 replicates; both purified

B1: TNKS1 SAM(Y1073A)-YFP (domain or fragment, human, UniProt O95271 1030-1089, looked up)
chain: T1 sequence (looked up) with K21E, Y44A
notes: human tankyrase 1 (TNKS1), sterile alpha-motif (SAM) domain; also called EH surface mutant of the TNKS1 SAM domain; source: E. coli BL21(DE3), purified (IMAC); not shown: mCitrine (YFP), C-terminal, kept
B1 was tested, and the binding was “binds”.
